Data published in patent US20140350088.
For at least one entry, the source does not settle the construct or the ends of the probe. Weaker means in comparison with the reference protein, sequence or condition of that experiment.

Chains of the proteins cited; added tags and fusions are not shown. Residues count along the entry.
UniProt P01275, 53-81: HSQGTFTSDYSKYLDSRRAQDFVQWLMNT

Target: biotinylated human glucagon (Homo sapiens) (UniProt P01275)
Assay: SPR
Conditions: synthetic protein, mirror-image nucleic acid

Q: Does “CAGACGUGUGUGGGUAGAUGCACCUGCGAUTCGCUAAAAAGUGCCACACGUCUG [NOX-G11-D31]” bind (L-RNA, dT at 31, unchanged vs parent, 37 C, synthetic backbone)?
A: binds

Q: Does “CAGACGUGUGUGGGUAGAUGCACCTGCGAUUCGCUAAAAAGUGCCACACGUCUG [NOX-G11-D25]” bind (L-RNA, dT at 25, improved vs parent, 37 C, synthetic backbone)?
A: binds

Q: Does “CAGACGUGUGUGGGUAGAUGCACCUGCGAUUCGCUAAAAAGUGCCACACGUCUG [NOX-G11-D10]” bind (L-RNA, 2'-deoxy at 10, improved vs parent, 37 C, synthetic backbone)?
A: binds

Q: Does “ACTCGAGAGGAAAGGTTGGTAAAGGTTCGGTTGGATTCACTCGAGT [259-H6-002-R01]” bind (L-DNA, rA at 1, reduced or lost binding vs parent, variant of 259-H6-002)?
A: binds more weakly

Q: Does “CAGACGUGUGUGGGUAGAUGCACCUGCGAUUCGCUAAAAAGUGCCACACGUCUG [NOX-G11-D36]” bind (L-RNA, 2'-deoxy at 36, improved vs parent, 37 C, synthetic backbone)?
A: binds

Q: Does “ACTCGAGAGGAAAGGTTGGTAAAGGTTCGGTTGGATTCACUCGAGT [259-H6-002-R41]” bind (L-DNA, rU at 41, reduced or lost vs parent, 37 C, synthetic backbone)?
A: binds more weakly

Q: Does “CAGACGUGUGUGGGUAGAUGCACCUGCGATUCGCUAAAAAGUGCCACACGUCUG [NOX-G11-D30]” bind (L-RNA, dT at 30, improved vs parent, 37 C, synthetic backbone)?
A: binds

Q: Does “ACTCGAGAGGAAAGGTTGGTAAAGGTTCGGTTGGATTCACTCGAGT [259-H6-002-R39]” bind (L-DNA, ribo at 39, improved vs parent, 37 C, synthetic backbone)?
A: binds

Q: Does “CAGACGTGUGUGGGUAGAUGCACCUGCGAUUCGCUAAAAAGUGCCACACGUCUG [NOX-G11-D07]” bind (L-RNA, dT at 7, improved vs parent, among best, variant of NOX-G11stabi2)?
A: binds

Q: Does “ACTCGAGAGGAAAGGTTGGTAAAGGTTCGGTTGGATTCACTCGAGT [259-H6-002-R07]” bind (L-DNA, rG at 7, reduced or lost binding vs parent, variant of 259-H6-002)?
A: binds more weakly

Q: Does “CAGACGUGUGUGGGUAGAUGCACCUGCGAUUCGCUAAAAAGUGCCACACGTCUG [NOX-G11-D51]” bind (L-RNA, dT at 51, reduced or lost binding vs parent, variant of NOX-G11stabi2)?
A: binds more weakly

Q: Does “ACTCGAGAGGAAAGGTTGGTAAAGGTTCGGTTGGATTCACTCGAGT [259-H6-002-R42]” bind (L-DNA, ribo at 42, reduced or lost vs parent, 37 C, synthetic backbone)?
A: binds more weakly

Q: Does “CAGACGUGUGUGGGUAGAUGCACCUGCGAUUCGCUAAAAAGTGCCACACGUCUG [NOX-G11-D42]” bind (L-RNA, dT at 42, reduced or lost binding vs parent, variant of NOX-G11stabi2)?
A: binds more weakly

Q: Does “ACTCGAGAGGAAAGGTTGGTAAAGGTTCGGTTGGATTCACTCGAGT [259-H6-002-R04]” bind (L-DNA, rC at 4, affinity unchanged vs parent, variant of 259-H6-002)?
A: binds

Q: Does “CAGACGUGUGUGGGUAGAUGCACCUGCGAUUCGCUAAAAAGUGCCACACGUCUG [NOX-G11-D47]” bind (L-RNA, dC at 47, reduced or lost binding vs parent, variant of NOX-G11stabi2)?
A: binds more weakly

Q: Does “CAGACGUGUGUGGGUAGAUGCACCUGCGAUUCGCUAAAAAGUGCCACACGUCUG [NOX-G11-D21]” bind (L-RNA, dC at 21, improved vs parent, among best, variant of NOX-G11stabi2)?
A: binds

Q: Does “ACTCGAGAGGAAAGGTTGGTAAAGGTTCGGTTGGAUTCACTCGAGT [259-H6-002-R13-R24-R30-R36]” bind (L-DNA, rA at 13, rG at 24 and 30, rU at 36, slightly better than R13-R24-R36, variant of 259-H6-002)?
A: binds

Q: Does “CAGACGUGUGUGGGUAGAUGCACCUGCGAUUCGCUAAAAAGUGCCACACGUCUG [NOX-G11-D54]” bind (L-RNA, dG at 54, reduced or lost binding vs parent, variant of NOX-G11stabi2)?
A: binds more weakly

Q: Does “ACTCGAGAGGAAAGGTTGGTAAAGGTTCGGTTGGATTCACTCGAGT [259-H6-002-R21]” bind (L-DNA, ribo at 21, reduced or lost vs parent, 37 C, synthetic backbone)?
A: binds more weakly

Q: Does “ACTCGAGAGGAAAGGTTGGTAAAGGTTCGGTTGGATTCACTCGAGU [259-H6-002-R46]” bind (L-DNA, rU at 46, affinity unchanged vs parent, variant of 259-H6-002)?
A: binds

Q: Does “CAGACGUGUGUGGGUAGAUGCACCUGCGAUUCGCUAAAAAGUGCCACACGUCUG [NOX-G11-D13]” bind (L-RNA, 2'-deoxy at 13, improved vs parent, 37 C, synthetic backbone)?
A: binds

Q: Does “ACUCGAGAGGAAAGGTTGGTAAAGGTTCGGTTGGATTCACTCGAGT [259-H6-002-R03]” bind (L-DNA, rU at 3, reduced or lost binding vs parent, variant of 259-H6-002)?
A: binds more weakly

Q: Does “CAGACGUGUGUGGGUAGAUGCACCUGCGAUUCGCUAAAAAGUGCCACACGUCUG [NOX-G11-D06]” bind (L-RNA, 2'-deoxy at 6, improved vs parent, 37 C, synthetic backbone)?
A: binds

Q: Does “ACTCGAGAGGAAAGGTTGGTAAAGGTTCGGTTGGAUTCACTCGAGT [259-H6-002-R36]” bind (L-DNA, rU at 36, variant of 259-H6-002)?
A: binds

Q: Does “CAGACGUGUGUGGGUAGAUGCACCUGCGAUUCGCUAAAAAGUGCCACACGUCUG [NOX-G11-D22]” bind (L-RNA, dA at 22, improved vs parent, among best, variant of NOX-G11stabi2)?
A: binds

Q: Does “ACTCGAGAGGAAAGGTTGGTAAAGGTTCGGTTGGATTCACTCGAGT [259-H6-002-R08]” bind (L-DNA, ribo at 8, improved vs parent, 37 C, synthetic backbone)?
A: binds

Q: Does “ACTCGAGAGGAAAGGTTGGTAAAGGTTCGGTUGGATTCACTCGAGT [259-H6-002-R32]” bind (L-DNA, rU at 32, reduced or lost vs parent, 37 C, synthetic backbone)?
A: binds more weakly

Q: Does “ACTCGAGAGGAAAGGTTGGTAAAGGTTCGGTTGGATTCACTCGAGT [259-H6-002-R11]” bind (L-DNA, rA at 11, reduced or lost binding vs parent, variant of 259-H6-002)?
A: binds more weakly

Q: Does “ACTCGAGAGGAAAGGTTGGTAAAGGTTCGGTTGGATTCACTCGAGT [259-H6-002-R38]” bind (L-DNA, ribo at 38, improved vs parent, 37 C, synthetic backbone)?
A: binds

Q: Does “CAGACGUGUGTGGGUAGAUGCACCUGCGAUUCGCUAAAAAGUGCCACACGUCUG [NOX-G11-D11]” bind (L-RNA, dT at 11, unchanged vs parent, 37 C, synthetic backbone)?
A: binds

Q: Does “CAGACGUGUGUGGGUAGAUGCACCUGCGAUUCGCUAAAAAGUGCCACACGUCUG [NOX-G11-D03]” bind (L-RNA, 2'-deoxy at 3, improved vs parent, 37 C, synthetic backbone)?
A: binds

Q: Does “CAGACGUGUGUGGGUAGAUGCACCUGCGAUUCGCUAAAAAGUGCCACACGUCUG [NOX-G11-D04]” bind (L-RNA, 2'-deoxy at 4, improved vs parent, 37 C, synthetic backbone)?
A: binds

Q: Does “ACTCGAGAGGAAAGGTTGGTAAAGGUTCGGTTGGATTCACTCGAGT [259-H6-002-R26]” bind (L-DNA, rU at 26, reduced or lost vs parent, 37 C, synthetic backbone)?
A: binds more weakly

Q: Does “CAGACGUGUGUGGGUAGAUGCACCUGCGAUUCGCUAAAAAGUGCCACACGUCUG [NOX-G11-D02]” bind (L-RNA, 2'-deoxy at 2, improved vs parent, 37 C, synthetic backbone)?
A: binds

Q: Does “CAGACGUGUGUGGGUAGAUGCACCUGCGAUUCGCUAAAAAGUGCCACACGUCUG [NOX-G11-D34]” bind (L-RNA, 2'-deoxy at 34, unchanged vs parent, 37 C, synthetic backbone)?
A: binds

Q: Does “CAGACGUGUGUGGGUAGAUGCACCUGCGAUUCGCUAAAAAGUGCCACACGUCUG [NOX-G11-D43]” bind (L-RNA, 2'-deoxy at 43, unchanged vs parent, 37 C, synthetic backbone)?
A: binds

Q: Does “CAGACGUGUGUGGGUAGAUGCACCUGCGAUUCGCUAAAAAGUGCCACACGUCUG [NOX-G11-D52]” bind (L-RNA, 2'-deoxy at 52, unchanged vs parent, 37 C, synthetic backbone)?
A: binds

Q: Does “CAGACGUGUGUGGGUAGAUGCACCUGCGAUUCGCUAAAAAGUGCCACACGUCUG [NOX-G11-D46]” bind (L-RNA, 2'-deoxy at 46, improved vs parent, 37 C, synthetic backbone)?
A: binds

Q: Does “CAGACGUGUGUGGGUAGAUGCACCUGCGAUUCGCUAAAAAGUGCCACACGUCUG [NOX-G11-D48]” bind (L-RNA, 2'-deoxy at 48, improved vs parent, 37 C, synthetic backbone)?
A: binds

Q: Does “ACTCGAGAGGAAAGGTTGGTAAAGGTTCGGUTGGATTCACTCGAGT [259-H6-002-R31]” bind (L-DNA, rU at 31, improved vs parent, 37 C, synthetic backbone)?
A: binds

Q: Does “ACTCGAGAGGAAAGGTTGGTAAAGGTTCGGTTGGATTCACTCGAGT [259-H6-002-R44]” bind (L-DNA, ribo at 44, improved vs parent, 37 C, synthetic backbone)?
A: binds

Q: Does “CAGACGUGUGUGGGUAGAUGCACCUGCGAUUCGCUAAAAAGUGCCACACGUCUG [NOX-G11-D08]” bind (L-RNA, 2'-deoxy at 8, improved vs parent, 37 C, synthetic backbone)?
A: binds

Q: Does “CAGACGUGUGUGGGUAGAUGCACCUGCGAUUCGCUAAAAAGUGCCACACGUCUG [NOX-G11-D37]” bind (L-RNA, dA at 37, reduced or lost binding vs parent, variant of NOX-G11stabi2)?
A: binds more weakly

Q: Does “ACTCGAGAGGAAAGGTTGGTAAAGGTTCGGTTGGATTCACTCGAGT [259-H6-002-R23]” bind (L-DNA, ribo at 23, reduced or lost vs parent, 37 C, synthetic backbone)?
A: binds more weakly

Q: Does “ACTCGAGAGGAAAGGTTGGTAAAGGTTCGGTTGGATTCACTCGAGT [259-H6-002-R25]” bind (L-DNA, ribo at 25, reduced or lost vs parent, 37 C, synthetic backbone)?
A: binds more weakly

Q: Does “CAGACGUGUGUGGGUAGAUGCACCUGCGAUUCGCUAAAAAGUGCCACACGUCUG [NOX-G11-D29]” bind (L-RNA, 2'-deoxy at 29, improved vs parent, 37 C, synthetic backbone)?
A: binds

Q: Does “CAGACGUGUGUGGGUAGAUGCACCUGCGAUUCGCUAAAAAGUGCCACACGUCUG [NOX-G11-D12]” bind (L-RNA, 2'-deoxy at 12, improved vs parent, 37 C, synthetic backbone)?
A: binds
